Some of the results follow. These are further read-outs of the screen, such as a control signal, another cell line or another target. No call is given for them. The list favours compounds with an active or inconclusive main result. Words in brackets tell the shape of the fitted curve; partial curves, single points and poor fits give uncertain potencies.
Assay: qHTS Assay for Modulators of Lamin A Splicing
Settings: HeLa LMNA splicing GFP/RFP minigene ratio, 48 h
How it was run: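 S3 HeLa stable clones carrying a lamin A-EGFP splicing minigene plus DsRed2 were seeded at 600 cells/well in Opti-MEM with 2% FBS, pin-dosed and incubated 48 h at 37°C. Acumen cytometry (488 nm) gave the GFP/RFP total-intensity ratio.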

[1] = measured here: GFP splicing reporter channel
[2] = measured here: RFP viability control channel

| SMILES | AC50 [1] | AC50 [2] |
| --- | --- | --- |
| Cc1ccc(Oc2ccc(Cl)cc2NC(=O)c2ccc(F)cc2F)cc1 | 10 µM [rising, partial curve, poor fit] | 14.1 µM [rising, partial curve] |
| CCOc1ccc(NS(=O)(=O)c2cc(Cl)ccc2OC)cc1 |  | 15.8 µM [rising, partial curve] |
| O=[N+]([O-])c1cccc(C2NCC(c3ccccc3Cl)c3c2[nH]c2ccccc32)c1 (configuration not stated) | 14.1 µM [falling, single point] | 11.2 µM [falling, partial curve, poor fit] |
| CC(C)NC(=O)c1onc(CSc2cccc(F)c2)c1C(=O)O | 17.8 µM [falling, single point] |  |
| CCOc1cc(/C=C2\SC(=O)N=C2N)ccc1O |  | 11.2 µM [rising, partial curve] |
| O=C(N/N=C/c1cn(-c2cccs2)nc1-c1ccccc1)c1ccccc1Cl |  | 31.6 µM [rising, single point] |
| COc1cc(Br)cc(/C=N/NC(=O)Cc2ccc(C(F)(F)F)cc2[N+](=O)[O-])c1O |  | 3.16 µM [rising, single point] |
| COc1ccc(/C=N/Nc2nnc(C)n2N)cc1OC | 35.5 µM [falling, single point] | 35.5 µM [falling, single point] |
| Clc1ccccc1CN(Cc1ccccc1)c1ncnc2nc[nH]c12 |  | 15.8 µM [rising, partial curve, poor fit] |
| CCOc1ccc(OCC)c(NC(=O)CSc2nc3c(c(=O)n(C)c(=O)n3C)n2C(C)C)c1 | 22.4 µM [rising, single point] | 17.8 µM [rising, single point] |
| COc1cc(Cl)c(NC(=O)CN(C)S(=O)(=O)c2ccc3[nH]c4c(c3c2)CCCC4)c(OC)c1 | 0.0355 µM [falling, full curve] |  |
| O=C(Nc1ccc(Cl)cc1)c1ccc(Br)cc1F | 0.178 µM [falling, full curve] | 5.01 µM [falling, partial curve, poor fit] |
| CCCOc1ccc(CNC(=O)Cn2c(=O)oc3ccccc32)cc1 |  | 14.1 µM [rising, partial curve, poor fit] |
| CSC1=NSC2=NC(=O)/C(=C/c3coc4ccccc4c3=O)C(=N)N12 |  | 35.5 µM [rising, single point] |
| Cc1cc(-n2c(SCc3ccccc3F)nc3n[nH]c(C)c3c2=N)ccc1Cl |  | 17.8 µM [falling, partial curve] |
| COc1ccc(-n2cc(C(=O)Nc3ccccc3C#N)c3ccccc3c2=O)cc1 |  | 14.1 µM [rising, partial curve, poor fit] |
| CCCN1Cc2cccc(C(N)=O)c2C1=O | 11.2 µM [rising, single point] | 14.1 µM [rising, single point] |
| CC(C)(C)c1ccc(S(=O)(=O)N2CCC(c3ccncc3)CC2)cc1 | 0.158 µM [falling, full curve, poor fit] |  |
| Cc1ccccc1NCC(=O)c1ccc(Br)cc1 | 7.94 µM [falling, partial curve, poor fit] | 2 µM [falling, single point] |

| SMILES | AC50 [1] | AC50 [2] |
| --- | --- | --- |
| COc1ccc(CCN2C(=O)CS/C2=N\NC(=O)c2cccs2)cc1OC |  | 1.58 µM [falling, full curve, poor fit] |
| COCCNC(=O)CSc1nccn1Cc1ccc2c(c1)OCO2 | 6.31 µM [rising, single point] | 3.55 µM [rising, single point] |
| Cc1ccc(NC(=O)c2ccnc(C(C)(C)C)c2)cc1 |  | 20 µM [rising, single point] |
| O=C(NNc1nc(-c2ccccc2)cs1)c1ccccc1 | 4.47 µM [falling, partial curve] |  |
| CC1(c2ccccc2)NC(=O)N(CC(=O)NC(=O)NCc2ccco2)C1=O (configuration not stated) | 0.2 µM [rising, full curve, poor fit] |  |
| CC(=O)c1cc(CC(=O)N2CCc3c([nH]c4ccccc34)C2c2ccccn2)cs1 (configuration not stated) | 10 µM [falling, single point] |  |
| COc1ccccc1NS(=O)(=O)c1cc(NC(=O)Nc2ccccc2)ccc1N1CCCCC1 | 35.5 µM [rising, single point] | 31.6 µM [rising, single point] |
| O=C(COc1ccccc1)NNC(=S)NC(=O)c1ccc(Cl)cc1Cl |  | 11.2 µM [rising, partial curve] |
| CCN1CCc2nc(SCC(=O)Nc3ccc(OC)cc3)c(C#N)cc2C1 | 8.91 µM [rising, partial curve, poor fit] | 12.6 µM [rising, partial curve] |
| Cc1cc(C)c(-c2csc(NC(=O)C3=NN(c4ccccc4)C(=O)CC3)n2)c(C)c1 | 7.94 µM [rising, partial curve, poor fit] | 8.91 µM [rising, partial curve] |
| Cc1ccc(S(=O)(=O)N2CCC(=O)N(CCOCc3cccc(C)c3)CC2)cc1 |  | 11.2 µM [rising, single point] |
| COc1cccc(NC(=O)c2oc3ccc(S(=O)(=O)N4CCOCC4)cc3c2C)c1 |  | 35.5 µM [rising, single point] |
| CCc1ccccc1N1C(=O)CC(N2CCc3ccccc32)C1=O (configuration not stated) |  | 0.501 µM [falling, full curve, poor fit] |
| OCCC1CN(Cc2cccc3c2OCO3)CCN1C1CCCCC1 (configuration not stated) | 0.355 µM [rising, full curve] |  |
| Cc1cccc(NC(=O)c2ccc(OC3CSC3)cc2)c1 | 14.1 µM [rising, partial curve] | 22.4 µM [rising, single point] |
| Cc1cc(NC(=O)CSc2ccc3nnc(CCNS(=O)(=O)c4ccccc4)n3n2)no1 | 3.55 µM [rising, partial curve, poor fit] |  |
| O=C(NCc1cccnc1)c1ccc(CN2CCc3ccccc3C2)cc1 |  | 31.6 µM [rising, single point] |
| Cc1cccc(CNc2ccnc(-c3ccccc3Cl)n2)c1 | 12.6 µM [falling, partial curve] |  |
| CCOc1ccc(N(CC(=O)Nc2ccc(C)c(C)c2)S(=O)(=O)c2c(C)noc2C)cc1 |  | 15.8 µM [rising, partial curve] |

| SMILES | AC50 [1] | AC50 [2] |
| --- | --- | --- |
| Cc1cc(C)nc(NC(=NCCc2c[nH]c3ccccc23)NC(=O)Nc2ccccc2)n1 |  | 35.5 µM [rising, single point] |
| CCCS(=O)(=O)c1nc(C)cc(C)c1S(C)(=O)=O | 0.0501 µM [rising, full curve, poor fit] | 0.0891 µM [rising, full curve] |
| CCOc1cc(N2CCOCC2)c(OCC)cc1NC(=O)c1ccc2ccccc2n1 | 6.31 µM [falling, single point] |  |
| Cc1nc(Nc2ccc(F)cc2)[nH]c(=O)c1CCC(C)C |  | 35.5 µM [rising, single point] |
| CCOc1ccc(-c2cccc(NS(=O)(=O)c3ccc(Cl)s3)c2)nn1 | 0.0355 µM [falling, full curve, poor fit] |  |
| COc1ccc(CNC(=O)c2ccc(Sc3ccc(Cl)cc3)c(NC(C)=O)c2)c(OC)c1 | 35.5 µM [falling, partial curve, poor fit] | 22.4 µM [falling, partial curve, poor fit] |
| COc1ccc(CCNC(=O)Cn2cc(C(F)(F)F)cc(Cl)c2=O)cc1OC | 1 µM [rising, partial curve] |  |
| NCCC(O)(P(=O)(O)O)P(=O)(O)O | 35.5 µM [falling, single point] | 20 µM [falling, single point] |
| O=C(CCC(=O)Nc1ccccc1Cl)N/N=C/c1c[nH]c2ccccc12 |  | 8.91 µM [rising, partial curve, poor fit] |
| CS(=O)(=O)N1N=C(c2ccccc2)CC1c1ccc2nccnc2c1 (configuration not stated) | 1.58 µM [rising, full curve, poor fit] | 20 µM [rising, partial curve, poor fit] |
| Fc1cccc(Cl)c1CSc1nnnn1-c1ccc2c(c1)OCO2 |  | 35.5 µM [rising, single point] |
| C(=N\c1ncnc2sccc12)/NOCc1ccccc1 |  | 11.2 µM [rising, partial curve] |
| O=C(CNC(=O)c1ccccc1F)N/N=C/c1cc(Br)ccc1OCc1ccccc1 |  | 25.1 µM [rising, single point] |
| COc1cccc2sc(Nc3nnc(-c4ccccc4Cl)o3)nc12 | 20 µM [falling, single point] | 0.631 µM [rising, full curve] |
| Cc1ccc(C(=O)N2CCN(c3ccc(NC(=O)CSc4ccc(Cl)cc4)cc3)CC2)cc1 | 7.08 µM [rising, partial curve] | 7.94 µM [rising, partial curve, poor fit] |
| CCCCn1c2c(c3ccccc31)CCc1nonc1-2 | 14.1 µM [rising, single point] |  |
| CCOc1ccccc1N1CCN(C(=O)c2c(-c3ccccc3Cl)noc2C)CC1 | 0.398 µM [falling, full curve, poor fit] | 0.708 µM [falling, full curve, poor fit] |
| Oc1ccccc1N1CCN(C(=S)NCCc2ccccc2)CC1 |  | 5.01 µM [rising, partial curve] |
| Cc1nn(-c2ccccc2)c(C)c1NC(=O)CCl | 3.16 µM [falling, full curve, poor fit] | 3.55 µM [falling, full curve] |

3 neighbouring records from above, for reference:

| SMILES | AC50 [1] | AC50 [2] |
| --- | --- | --- |
| COc1cccc2sc(Nc3nnc(-c4ccccc4Cl)o3)nc12 | 20 µM [falling, single point] | 0.631 µM [rising, full curve] |
| Cc1ccc(C(=O)N2CCN(c3ccc(NC(=O)CSc4ccc(Cl)cc4)cc3)CC2)cc1 | 7.08 µM [rising, partial curve] | 7.94 µM [rising, partial curve, poor fit] |
| CCCCn1c2c(c3ccccc31)CCc1nonc1-2 | 14.1 µM [rising, single point] |  |

Reference: PubChem BioAssay AID1487 (National Center for Advancing Translational Sciences (NCATS), 2009)
